From article PMC7368280
These are yes or no findings as the source states them, for the method shown. Binding seen in cells or lysates may run through a third protein. A yes stands for co-enrichment or nearness to the bait. Other partners may have been found. For part of these data: A no says only that the protein was not detected with the bait. Where a sequence is shown, tags or fusion partners need not be part of it.

T1: ICU11-3xHA (gICU11-HA in icu11-3) (Arabidopsis) (UniProt Q3ED68)
T1 sequence: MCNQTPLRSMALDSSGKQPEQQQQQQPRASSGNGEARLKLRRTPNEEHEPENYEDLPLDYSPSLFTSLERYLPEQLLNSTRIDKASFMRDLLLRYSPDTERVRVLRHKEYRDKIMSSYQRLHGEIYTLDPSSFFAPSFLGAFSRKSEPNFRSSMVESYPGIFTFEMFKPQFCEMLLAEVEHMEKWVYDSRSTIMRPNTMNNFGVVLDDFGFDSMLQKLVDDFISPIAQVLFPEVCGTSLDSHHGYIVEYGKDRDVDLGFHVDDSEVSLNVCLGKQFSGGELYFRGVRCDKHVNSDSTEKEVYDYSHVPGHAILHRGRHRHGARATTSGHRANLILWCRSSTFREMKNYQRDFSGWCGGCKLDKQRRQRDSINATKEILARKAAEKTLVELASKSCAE

T2: GFP-CLF (35S:GFP-CLF in clf-50) (Arabidopsis) (UniProt P93831)
T2 sequence: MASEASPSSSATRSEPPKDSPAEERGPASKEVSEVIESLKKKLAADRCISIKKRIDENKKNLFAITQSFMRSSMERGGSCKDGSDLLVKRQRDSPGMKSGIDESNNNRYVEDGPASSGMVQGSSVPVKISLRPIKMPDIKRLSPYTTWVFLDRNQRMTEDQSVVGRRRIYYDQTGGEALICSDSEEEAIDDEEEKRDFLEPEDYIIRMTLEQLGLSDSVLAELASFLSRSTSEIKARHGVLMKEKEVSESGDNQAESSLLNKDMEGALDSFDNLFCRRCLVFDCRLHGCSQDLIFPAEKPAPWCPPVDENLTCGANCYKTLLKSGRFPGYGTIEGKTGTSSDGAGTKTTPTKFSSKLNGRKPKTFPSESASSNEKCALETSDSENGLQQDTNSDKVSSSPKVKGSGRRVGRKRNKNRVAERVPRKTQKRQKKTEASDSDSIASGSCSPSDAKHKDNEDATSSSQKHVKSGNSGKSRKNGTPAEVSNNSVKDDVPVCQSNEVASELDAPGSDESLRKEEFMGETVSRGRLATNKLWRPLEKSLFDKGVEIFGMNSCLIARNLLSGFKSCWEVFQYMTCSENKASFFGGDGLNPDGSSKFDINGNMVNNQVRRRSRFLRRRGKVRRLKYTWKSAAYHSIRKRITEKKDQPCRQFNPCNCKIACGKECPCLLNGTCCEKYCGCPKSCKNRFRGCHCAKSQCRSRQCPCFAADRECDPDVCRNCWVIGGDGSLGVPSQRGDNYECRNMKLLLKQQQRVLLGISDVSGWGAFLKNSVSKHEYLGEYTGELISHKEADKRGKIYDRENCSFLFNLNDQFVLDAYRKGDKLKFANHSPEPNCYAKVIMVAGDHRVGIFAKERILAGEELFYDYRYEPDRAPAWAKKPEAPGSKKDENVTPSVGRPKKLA

T3: ICU11-eGFP (gICU11-GFP in icu11-3) (Arabidopsis) (UniProt Q3ED68)
T3 sequence: T1 sequence

T4: SWN-GFP (gSWN-GFP) (Arabidopsis) (UniProt Q9ZSM8)
T4 sequence: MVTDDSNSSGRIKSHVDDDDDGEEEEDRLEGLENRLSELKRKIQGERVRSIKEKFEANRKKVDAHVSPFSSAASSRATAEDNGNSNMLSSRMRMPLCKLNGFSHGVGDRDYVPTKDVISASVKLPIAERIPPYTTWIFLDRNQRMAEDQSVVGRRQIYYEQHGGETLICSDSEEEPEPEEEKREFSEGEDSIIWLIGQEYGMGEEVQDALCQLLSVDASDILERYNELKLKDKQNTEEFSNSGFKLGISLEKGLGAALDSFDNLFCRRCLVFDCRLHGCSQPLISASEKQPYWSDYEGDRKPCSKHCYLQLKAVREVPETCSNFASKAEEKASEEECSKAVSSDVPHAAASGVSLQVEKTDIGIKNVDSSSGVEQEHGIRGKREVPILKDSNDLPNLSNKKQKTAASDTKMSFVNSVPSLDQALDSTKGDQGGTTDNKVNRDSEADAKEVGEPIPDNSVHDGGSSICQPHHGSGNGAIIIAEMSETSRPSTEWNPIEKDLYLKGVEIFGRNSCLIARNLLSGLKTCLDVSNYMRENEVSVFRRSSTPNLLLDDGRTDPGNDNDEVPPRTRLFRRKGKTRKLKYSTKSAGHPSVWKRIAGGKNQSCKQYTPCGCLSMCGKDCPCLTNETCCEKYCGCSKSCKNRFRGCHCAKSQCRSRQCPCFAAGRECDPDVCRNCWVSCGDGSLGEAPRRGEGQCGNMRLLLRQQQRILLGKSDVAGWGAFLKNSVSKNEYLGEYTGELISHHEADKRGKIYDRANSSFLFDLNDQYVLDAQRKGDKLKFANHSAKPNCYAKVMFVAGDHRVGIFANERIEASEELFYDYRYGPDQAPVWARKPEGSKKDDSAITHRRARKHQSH

B1: EMBRYONIC FLOWER 1 (EMF1), endogenous (protein, UniProt Q9LYD9 1-1096)
chain: MGSSIKINSISIDLAGAANEIDMVKCDHFSMRGFVAETRERDLRKCWPFSEESVSLVDQQSYTLPTLSVPKFRWWHCMSCIKDIDAHGPKDCGLHSNSKAIGNSSVIESKSKFNSLTIIDHEKEKKTDIADNAIEEKVGVNCENDDQTATTFLKKARGRPMGASNVRSKSRKLVSPEQVGNNRSKEKLNKPSMDISSWKEKQNVDQAVTTFGSSEIAGVVEDTPPKATKNHKGIRGLMECDNGSSESINLAMSGLQRRKSRKVRLLSELLGNTKTSGGSNIRKEESALKKESVRGRKRKLLPENNYVSRILSTMGATSENASKSCDSDQGNSESTDSGFDRTPFKGKQRNRRFQVVDEFVPSLPCETSQEGIKEHDADPSKRSTPAHSLFTGNDSVPCPPGTQRTERKLSLPKKKTKKPVIDNGKSTVISFSNGIDGSQVNSHTGPSMNTVSQTRDLLNGKRVGGLFDNRLASDGYFRKYLSQVNDKPITSLHLQDNDYVRSRDAEPNCLRDFSSSSKSSSGGWLRTGVDIVDFRNNNHNTNRSSFSNLKLRYPPSSTEVADLSRVLQKDASGADRKGKTVMVQEHHGAPRSQSHDRKETTTEEQNNDDIPMEIVELMAKNQYERCLPDKEEDVSNKQPSQETAHKSKNALLIDLNETYDNGISLEDNNTSRPPKPCSSNARREEHFPMGRQQNSHDFFPISQPYVPSPFGIFPPTQENRASSIRFSGHNCQWLGNLPTVGNQNPSPSSFRVLRACDTCQSVPNQYREASHPIWPSSMIPPQSQYKPVSLNINQSTNPGTLSQASNNENTWNLNFVAANGKQKCGPNPEFSFGCKHAAGVSSSSSRPIDNFSSESSIPALHLLSLLDPRLRSTTPADQHGNTKFTKRHFPPANQSKEFIELQTGDSSKSAYSTKQIPFDLYSKRFTQEPSRKSFPITPPIGTSSLSFQNASWSPHHQEKKTKRKDTFAPVYNTHEKPVFASSNDQAKFQLLGASNSMMLPLKFHMTDKEKKQKRKAESCNNNASAGPVKNSSGPIVCSVNRNPADFTIPEPGNVYMLTGEHLKVRKRTTFKKKPAVCKQDAMKQTKKPVCPPTQNA
B2: VERNALIZATION5 (protein, UniProt Q9LHF5 1-602)
chain: MDSSSTKSKISHSRKTNKKSNKKHESNGKQQQQQDVDGGGGCLRSSWICKNASCRANVPKEDSFCKRCSCCVCHNFDENKDPSLWLVCEPEKSDDVEFCGLSCHIECAFREVKVGVIALGNLMKLDGCFCCYSCGKVSQILGCWKKQLVAAKEARRRDGLCYRIDLGYRLLNGTSRFSELHEIVRAAKSMLEDEVGPLDGPTARTDRGIVSRLPVAANVQELCTSAIKKAGELSANAGRDLVPAACRFHFEDIAPKQVTLRLIELPSAVEYDVKGYKLWYFKKGEMPEDDLFVDCSRTERRMVISDLEPCTEYTFRVVSYTEAGIFGHSNAMCFTKSVEILKPVDGKEKRTIDLVGNAQPSDREEKSSISSRFQIGQLGKYVQLAEAQEEGLLEAFYNVDTEKICEPPEEELPPRRPHGFDLNVVSVPDLNEEFTPPDSSGGEDNGVPLNSLAEADGGDHDDNCDDAVSNGRRKNNNDCLVISDGSGDDTGFDFLMTRKRKAISDSNDSENHECDSSSIDDTLEKCVKVIRWLEREGHIKTTFRVRFLTWFSMSSTAQEQSVVSTFVQTLEDDPGSLAGQLVDAFTDVVSTKRPNNGVMTSH
B3: VEL1 (protein, UniProt Q9SUM4 1-714)
chain: MDSSLDGAAGDSSKCSEMSVDEKRQLVYELSKQSHLAAEVLQAWSRQEILQILCAEMGKERKYTGLTKVKIIETLLKIVSEKNSGECEGKKRDSDCLPIQRNTKRQRKVDNPSRYVIPATNIVTSNNASGSCSSVNTKGESTTIYCKNLACRAVLRQEDSFCRRCSCCICRKYDDNKDPSLWLTCSSDPPFEGESCGFSCHLECAFNTEKSGLGKDKQSEGCCFYCVSCGKANSLLECWKKQLTIAKETRRVEVLCYRLFLVQKLLKSSTKYRNLCEVVDEAVKTLEADVGPLTGLPMKMGRGIVNRLHSGPDVQKLCSSALESLETIATTPPDVAALPSPRSSKMQQDCSYVLSNEISADTATTGSTKIRFEDVNATSLTVVLASNEIPSPPNIVHYSIWHRKVPEKDYPEKSTCTLFIPNTRFVVSGLAPASEYCFKVVSYSGTREMGVDEINVLTRSAEEGANCSSAVERSVSPLTNCSTLSSNPSSVEAESNNDYIVPKKPSSKNEDNNSPSVDESAAKRMKRTTDSDIVQIEKDVEQIVLLDDEEQEAVLDKTESETPVVVTTKSLVGNRNSSDASLPITPFRSDEIKNRQARIEISMKDNCNNGDHSANGGTESGLEHCVKIIRQLECSGHIDKNFRQKFLTWYSLRATSQEIRVVKIFIDTFIDDPMALAEQLIDTFDDRVSIKRSAVGGSGASAVVPSGFCMKLWH

What follows are binders tested against T1, ICU11-3xHA (gICU11-HA in icu11-3) (Arabidopsis) (assay: affinity purification with mass spectrometry; coIP-MS with 3xHA-tagged ICU11 as bait from Arabidopsis plants (gICU11-HA icu11-3), control icu11-3; two independent experiments; procedure in SI Appendix).
In the case of B1, the binding is reported as “binds”.
B2 was tested, and the binding was “no binding”.
For B3, the binding was “no binding”.

What follows are binders tested against T2, GFP-CLF (35S:GFP-CLF in clf-50) (Arabidopsis) (assay: affinity purification with mass spectrometry; coIP-MS with GFP-tagged baits from Arabidopsis plants (gICU11-GFP icu11-3; 35S:GFP-CLF clf-50; gSWN-GFP), control 35S::GFP; two independent experiments; procedure in SI Appendix).
In the case of B1, the binding is reported as “binds”.
With B2 the binding was “binds”.
B3 was tested, and the binding was “binds”.

Each binder was assayed against T3, ICU11-eGFP (gICU11-GFP in icu11-3) (Arabidopsis) in the same assay as above.
In the case of B1, the binding is reported as “binds”.
B2 was tested, and the binding was “no binding”.
With B3 the binding was “no binding”.

These binders were tested against T4, SWN-GFP (gSWN-GFP) (Arabidopsis) in the same assay as above.
In the case of B1, the binding is reported as “binds”.
In the case of B2, the binding is reported as “binds”.
For B3, the binding was “binds”.
